# Assay results taken from PubChem BioAssay AID651664 (NMMLSC, 2012).
# In all, about 1,800 compounds went through this assay and fewer than 10 were called active.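 Rule for the calls: active = inhibition of granule release above a set limit; inactive = the rest.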 This is one part of the list.
# Experiment: inhibitors of lytic granule exocytosis, flow cytometry, TALL-104 cells, validation set (AID 651664)
# Details: TALL-104 LAMP-1 externalization, at 15.2 µM, hits give high values, stimulated with thapsigargin and PMA
row,Compound,inhibition
1,O=C(Nc1ccc(Cl)cc1Cl)C1=Cc2ccccc2OC1,inactive: 1.8%
2,COC(=O)c1cccc(NC(=O)NC2CCCN2S(=O)(=O)c2ccc(Cl)cc2)c1 (centres undefined),inactive: 4.3%
3,CN(C)c1ccc(CN2CCCCC2)cc1,inactive: 1.8%
4,O=C(NCCN1CCN(C(=O)NC2CCCCC2)CC1)NC1CCCCC1,inactive: 1.1%
5,CCC(Sc1nc(C)cc(C)n1)C(=O)Nc1ccc(Cl)cn1 (centres undefined),inactive: 1.3%
6,O=C(CSc1nnc(-c2ccc(Cl)cc2)n1Cc1ccco1)NCc1ccc2c(c1)OCO2,inactive: -0.6%
7,CCS(=O)(=O)N1CCCC(C(=O)NCc2ccccc2Cl)C1 (centres undefined),inactive: 2.6%
8,C=CCn1c(CSCc2ccc(C)cc2)nnc1SCC(=O)NCc1ccccc1,inactive: -2.3%
9,COc1ccc2c(c1)C(C1C(=O)CCCC1=O)c1ccccc1O2 (centres undefined),inactive: 3.3%
10,CCCS(=O)(=O)N1CCCC(C(=O)NCc2ccc3c(c2)OCO3)C1 (centres undefined),inactive: 1.1%
11,COC(=O)c1ccc(/C=N/NC(=O)CC(=O)NCC(C)C)cc1,inactive: -2.9%
12,CCC(=O)N1CCN(C(=O)CC)C1c1ccccc1,inactive: -1%
13,Cc1ccc2nc(NC(=S)NC(=O)c3cccs3)sc2c1,inactive: -2.1%
14,NNc1ncnc2c1cnn2-c1ccccc1,inactive: -1.9%
15,O=C(NCCCN1CCOCC1)c1coc2ccccc2c1=O,inactive: -2.7%
16,Cc1nc2c(=O)oc3ccccc3c2n1-c1ccccc1,inactive: -0.5%
17,CCCCCC(=O)N(O)C1CC(=O)N(c2ccccc2)C1=O (centres undefined),inactive: -2.2%
18,COC(=O)C1CCN(Cc2cc(=O)oc3cc(OC)ccc23)CC1,inactive: -0.8%
19,O=P(COCCOCP(=O)(c1ccccc1)c1ccccc1)(c1ccccc1)c1ccccc1,inactive: -0.5%
20,O=C(Cc1ccccc1)NCc1ccc2c(c1)OCO2,inactive: -2.6%
21,Cc1ccccc1NC(=O)N1C2CCC1CC(O)(c1cccnc1)C2 (centres undefined),inactive: -1.6%
22,COCCNC(=O)Cn1cc(C(=O)c2cccs2)c2ccccc21,inactive: -1.5%
23,CCC(C)(C)NC(=O)C(c1ccc(C)o1)N(Cc1cccs1)C(=O)Cn1nnc2ccccc21 (centres undefined),inactive: -2%
24,O=C(N/N=C/c1cccnc1)c1ccc([N+](=O)[O-])cc1,inactive: -5.2%
25,CCc1nn(-c2ccccc2)c2c1-c1cc(OC)c(OC)cc1C1(N2)C(=O)Nc2ccccc21 (centres undefined),inactive: -0.7%

row,Compound,inhibition
1,COc1cc(NC(=S)NC(=O)c2cc(C)cc(C)c2)ccc1NC(=O)c1cccs1,inactive: 0%
2,CN1C(=O)C(=C2CCCCCC2)SC1=S,inactive: -1.7%
3,Cc1ccc(SCCNC(=O)c2ccc(C)c([N+](=O)[O-])c2)cc1,inactive: -3.5%
4,O=C(c1c[nH]c(C(=O)C(Cl)(Cl)Cl)c1)c1ccccc1Cl,inactive: 2.1%
5,COC(=O)c1ccc(N2C(=O)CC(SCCN)C2=O)cc1 (centres undefined),inactive: -1.8%
6,CC1=NN(c2ccc(Br)cc2)C(=O)/C1=C/c1cccs1,inactive: -2.7%
7,Cc1ccc(C)c(N=C2NC(=O)CS2)c1,inactive: -0.7%
8,c1ccc2c(c1)ncn2CCOCCOCCn1cnc2ccccc21,inactive: -2.5%
9,N#CC(c1ccc(Cl)cc1)c1ccc(Cl)nn1 (centres undefined),inactive: -0.4%
10,O=C(Cn1cnc2ccc(Cl)cc2c1=O)c1cccs1,inactive: 2.4%
11,Cc1ccc(-c2nn(CC(=O)NCc3ccco3)c(=O)c3ccccc23)cc1,inactive: -2%
12,Nc1c(N=Nc2ccccc2F)c(=O)[nH]n1-c1ccccc1,inactive: -1%
13,O=C(Nc1nc2ccc(Cl)cc2s1)c1ccc(Br)o1,inactive: 6.4%
14,COc1ccc2[nH]c(=O)c(CN(CC3CCCO3)C(=O)Nc3ccc(F)cc3)cc2c1 (centres undefined),inactive: -0.2%
15,c1ccc(C(Cc2nc(-c3cccnc3)no2)c2ccccc2)cc1,inactive: -0.9%
16,CCOC(=O)c1c(C)nc2sc(C(N)=O)c(N)c2c1-c1ccc(OC)cc1,inactive: 2.1%
17,O=C(Oc1ccc(-c2cnc3ccccc3n2)cc1)c1ccc(Cl)c([N+](=O)[O-])c1,inactive: 0.7%
18,CN(C(=O)C12CC3CC(CC(C3)C1)C2)C1(C)CCS(=O)(=O)C1 (centres undefined),inactive: -1.6%
19,O=c1[nH]c(CO)nc2c1oc1ccccc12,inactive: -3.5%
20,CC(C)N1C(=O)/C(=C/c2nc3ccccc3c(=O)n2-c2ccccc2)c2ccccc21,inactive: -1%
21,Clc1ccc(Nc2nc(-c3ccncc3)cs2)cc1,inactive: 2.3%
22,Cc1cc2ncn(CC(O)COC3CCCCC3)c2cc1C (centres undefined),inactive: -2.3%
23,COc1ccc(Cl)cc1NC(=S)N1CCN(C(=O)c2ccco2)CC1,inactive: -1.3%
24,CCC(CO)NC(=O)c1cccc(S(=O)(=O)N2c3ccccc3CC2C)c1 (centres undefined),inactive: 2.2%
25,O=C1CCCCC1C(Nc1ccc(Cl)cc1)c1ccccc1 (centres undefined),inactive: 1.3%

# 5 entries from above, arranged by molecular weight, low to high.
row,Compound,inhibition
9,N#CC(c1ccc(Cl)cc1)c1ccc(Cl)nn1 (centres undefined),inactive: -0.4%
12,Nc1c(N=Nc2ccccc2F)c(=O)[nH]n1-c1ccccc1,inactive: -1%
6,CC1=NN(c2ccc(Br)cc2)C(=O)/C1=C/c1cccs1,inactive: -2.7%
13,O=C(Nc1nc2ccc(Cl)cc2s1)c1ccc(Br)o1,inactive: 6.4%
23,COc1ccc(Cl)cc1NC(=S)N1CCN(C(=O)c2ccco2)CC1,inactive: -1.3%

# (cont.)

row,Compound,inhibition
1,COc1cccc(/C=N/NC(=O)C(=O)N2CCCC2)c1OC,inactive: -4.1%
2,CC1=C(C(=O)OCC(C)C)C(c2cccc(F)c2)N2C(=O)C(C)SC2=N1 (centres undefined),inactive: 1.9%
3,COc1cccc(NC(=O)Nc2cccs2)c1,inactive: -0.5%
4,c1ccc(-n2ncc(-c3nn[nH]n3)n2)cc1,inactive: 3%
5,C=CCn1c(=O)/c(=C2/SC(C)=C(C)N2CC)s/c1=C1/C(=O)N(CC)C(=S)N1c1ccccc1,inactive: -2.3%
6,O=C(Nc1cc(N2CCOCC2)ncn1)c1ccccc1,inactive: 1.6%
7,O=C(Nc1ccc2c(c1)OCO2)c1ccc(Cl)nc1,inactive: -1.2%
8,CCc1nc(SCC(=O)N2CCc3cc(OC)c(OC)cc3C2)c(C#N)cc1C,inactive: -0.8%
9,CCn1c(CSCc2ccc(F)cc2)nnc1SCC(=O)N1CCN(c2ccccc2)CC1,inactive: -4.5%
10,CCc1nc(SCC(=O)Nc2cc(C)on2)c2c(C)c(C)sc2n1,inactive: -3.5%
11,Cc1ccc2nc(SCC(=O)Nc3cc(C(F)(F)F)ccc3N3CCOCC3)[nH]c2c1,inactive: 1.1%
12,Cc1cc(NC(c2cccnc2)c2ccc3cccnc3c2O)no1 (centres undefined),inactive: 0.3%
13,COc1ccc(CCNC(=O)C(C)Sc2ccccc2)cc1OC (centres undefined),inactive: -1.7%
14,c1ccc(NC2=Nc3ccccc3CS2)cc1,inactive: 2.9%
15,CCN(CC)C(=O)C1CC(=O)N(c2ccc(F)c(Cl)c2)C1 (centres undefined),inactive: -0.5%
16,CCc1nc(N2CCOCC2)c(C#N)c2c1COC(C)(C)C2,inactive: 0.4%
17,C=CCn1c(C)cc(C(=O)CSc2nnc3c(Cl)cc(Cl)cn23)c1C,inactive: -0.2%
18,CCCn1nnc2sc3c(c2c1=O)CCC(C)C3 (centres undefined),inactive: -2.7%
19,CCN(CC)CCN1C(=O)c2oc3ccccc3c(=O)c2C1c1ccc(C)cc1 (centres undefined),inactive: 0.5%
20,COc1ccc2[nH]c(=O)c(CN(CCCN(C)C)C(=O)Nc3ccc(F)cc3)cc2c1,inactive: -3%
21,O=C(NCc1cn2ccsc2n1)c1cccc(C(F)(F)F)c1,inactive: -0.3%
22,Cc1ccc(Cn2ncc3c(N4CCCC4)ncnc32)cc1,inactive: 0.5%
23,CCCC(=O)Nc1cccc(Oc2nc(C)cc(C)c2C#N)c1,inactive: 0.9%
24,Cc1ccc(C2C3=C(CC(C)(C)CC3=O)NC3=C2C(=O)CC(C)(C)C3)o1,inactive: -3.1%
25,COC(=O)c1ccccc1N/C=C1\CCc2c(c(C)nn2-c2ccccn2)C1=O,inactive: -2.2%

row,Compound,inhibition
1,O=C(Cn1cnc2ccccc2c1=O)c1ccc2ccccc2c1,inactive: 0%
2,CC(=O)c1ccc(N2CCN(C(=S)Nc3cccc(F)c3)CC2)cc1,inactive: -2.9%
3,Cc1cccc(NC(=S)NNC(=O)CC(C)O)c1C (centres undefined),inactive: 1.1%
4,Cc1[nH]c2ccccc2c1CCNC(=O)c1ccc2c(c1[N+](=O)[O-])C(=O)c1ccccc1C2=O,inactive: 1.2%
5,Cc1cc(N(CC(=O)O)S(C)(=O)=O)ccc1Br,inactive: 0%
6,CCOC(=O)NCN1C(=O)C2C3C=CC(C3)C2C1=O (centres undefined),inactive: 4.9%
7,Cc1nnc(NCc2ccco2)c2ccccc12,inactive: -3.2%
8,CCc1ccc(C2=NN(c3ccc(S(N)(=O)=O)cc3)C(c3ccc(F)cc3)C2)cc1 (centres undefined),inactive: 18.8%
9,CCCCOC(=O)C1C2C=C[C@]3(CN(C(C)c4ccc(OC)cc4)C(=O)[C@H]13)O2 (some centres undefined),inactive: -1.6%
10,Cc1cc(=O)n2nc(N3CCCC(C(=O)NCc4ccco4)C3)sc2n1 (centres undefined),inactive: -1.5%
11,Cc1ccc([N+](=O)[O-])cc1NC(=O)c1ccc(-c2ccccc2)cc1,inactive: 0.2%
12,Cc1ccc(C(=O)C2(C)C3c4cc(Br)ccc4OC(=O)C32C(=O)c2ccco2)cc1 (centres undefined),active: 93.2%
13,CCOc1cc(NC(=O)c2cccs2)c(OCC)cc1NC(=O)c1ccco1,inactive: -2.1%
14,C=CCNc1nc(SC)nc2ccsc12,inactive: 1.1%
15,CC1CN(C(=O)N[C@@H](Cc2ccccc2)C(=O)O)CC(C)O1 (some centres undefined),inactive: -1.8%
16,CCc1cc(=O)n2c([nH]c3ccccc32)c1C#N,inactive: 0.1%
17,Cc1cnc(C(=O)Nc2nccs2)cn1,inactive: -2.2%
18,CCOc1cccc(C(=O)N(Cc2ccco2)C2CCS(=O)(=O)C2)c1 (centres undefined),inactive: -1.1%
19,O=C1C(C=NCc2ccco2)=C(O)c2ccccc21,inactive: -0.7%
20,COCCN1CN(S(=O)(=O)c2ccc(Cl)cc2)c2nc3ccccc3nc21,inactive: -1.9%
21,COCC(=O)Nc1nc2n(n1)C(c1ccc(Cl)cc1)CC(c1ccc(OC)cc1)N2 (centres undefined),inactive: -1%
22,COc1ccc2c(c1OC)C(=O)N(c1ccccn1)C2,inactive: -1.2%
23,COC(=O)[C@H](C)NC(=O)NCc1ccccc1F,inactive: -2.4%
24,COc1ccc(/C=N/Nc2nc(C)c([N+](=O)[O-])c(N(C)c3ccccc3)n2)cc1OC,inactive: -0.1%

# Single entries from the results shown.
# inhibition with CCc1ccc(C2=NN(c3ccc(S(N)(=O)=O)cc3)C(c3ccc(F)cc3)C2)cc1 (centres undefined) reads inactive: 18.8%
# inhibition with O=C1C(C=NCc2ccco2)=C(O)c2ccccc21 reads inactive: -0.7%
